# PubChem BioAssay AID1259308, NCATS | 2017
# Aim: 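Candidate targets for better recombinant protein yield in mammalian cells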 (primary screen)
# Cells: human HEK293 embryonic kidney cells stably expressing firefly luciferase (HEK-CMV-Luc2-Hygro)
# Reagents: single siRNA against human genes, 0.8 pmol siRNA per well
# Time to read-out: 72 h
# Measurement: 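Luciferase light (ONE-Glo) measured on one replicate plate set and viability (CellTiter-Glo) on the other, scaled to a negative control siRNA, with robust z-scores and luciferase per cell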
# Direction: total luciferase, z-score: higher = more reporter protein produced
# Call rule: 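An siRNA counts as active if its total luciferase robust z-score exceeds 3; genes with two or more such siRNAs out of three were retested with fresh siRNAs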
# Calls: active = raised luciferase; inactive = no rise
# The deposit covers about 59,000 reagents; shown is a part drawn at random. Over the whole deposit, about 1,510 (2.6%) got an active call. 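Calls use total luciferase alone and ignore viability, so some active siRNAs may act by altering cell number.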 Unmarked entries are inactive. Reagents against one gene are numbered here. Further read-outs or replicates are left out here.
Gene,reagent,"total luciferase, z-score"
PDIA5,1,1.49
PDIA5,2,-1.53
PDIA5,3,-0.342
KAT5,1,5.98 (active)
KAT5,2,0.806
KAT5,3,3.65 (active)
POU4F3,1,2.25
POU4F3,2,-0.35
POU4F3,3,1.2
FCHSD2,1,0.681
FCHSD2,2,0.142
FCHSD2,3,0.131
TEP1,1,-0.345
TEP1,2,-1.17
TEP1,3,-1.57
MACO1,1,-0.122
MACO1,2,0.526
MACO1,3,0.351
LPL,1,-1.78
LPL,2,-0.241
LPL,3,-0.578
FATE1,1,4.2 (active)
FATE1,2,-1.15
FATE1,3,-0.681
ATP11B,1,-0.0059
ATP11B,2,0.132
ATP11B,3,1.29
ROPN1B,1,-0.419
ROPN1B,2,-0.332
ROPN1B,3,2.23
PMS2P10,1,0.499
PMS2P10,2,-1.61
PMS2P10,3,-1.37
INTS13,1,-0.781
INTS13,2,1.76
INTS13,3,3.98 (active)
SCN7A,1,-0.408
SCN7A,2,0.859
SCN7A,3,-0.527
